Results are given in words; binding and its absence hold for the method and conditions named. Binding seen in cells or lysates may run through a third protein. Some binding calls cover weakened binding; strength is not graded here.
Assays:
[1] = substrate: CSP (rat (endogenous in rat brain synaptic vesicles)) (UniProt P60905); assay: cross-linking; purified, unstimulated, untreated rat brain synaptic vesicles; 10 mM BS3, 1 h, 25 °C; trypsin, enrichment of cross-linked peptides by peptide SEC, LC-MS/MS, pLink, manual validation; four biological replicates
cross-linking = substrate: CSP (rat (endogenous in rat brain synaptic vesicles)) (UniProt P60905); assay: cross-linking
[2] = substrate: CSP (rat (endogenous in rat brain synaptic vesicles)) (UniProt P60905); assay: cross-linking; synaptic vesicles fused with ΔN-SNARE-proteoliposomes (100 nm liposomes), then BS3 and LC-MS/MS; vesicle proteins in the more spacious membrane
[3] = molecular target: T1, Synaptophysin (rat (endogenous in rat brain synaptic vesicles)), P07825; assay: cross-linking; purified, unstimulated, untreated rat brain synaptic vesicles; 10 mM BS3, 1 h, 25 °C; trypsin, enrichment of cross-linked peptides by peptide SEC, LC-MS/MS, pLink, manual validation; four biological replicates; settings: remark: other sources report otherwise
[4] = molecular target: Synapsin-1 (rat (endogenous in rat brain synaptic vesicles)), P09951; assay: as above; settings: remark: other sources report otherwise
[5] = molecular target: T2, CSP (rat (endogenous in rat brain synaptic vesicles)), P60905; assay: as above; settings: remark: other sources report otherwise
T2 chain: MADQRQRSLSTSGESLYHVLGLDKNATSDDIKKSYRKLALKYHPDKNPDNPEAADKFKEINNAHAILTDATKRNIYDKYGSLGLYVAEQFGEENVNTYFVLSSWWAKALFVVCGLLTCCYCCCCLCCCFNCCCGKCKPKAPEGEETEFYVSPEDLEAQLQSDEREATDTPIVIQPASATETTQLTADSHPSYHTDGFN

[6] = molecular target: T1, Synaptophysin (rat (endogenous in rat …)); assay: cross-linking; synaptic vesicles fused with ΔN-SNARE-proteoliposomes (100 nm liposomes), then BS3 and LC-MS/MS; vesicle proteins in the more spacious membrane; settings: remark: other sources report otherwise
[7] = molecular target: T1, Synaptophysin (rat (endogenous in rat …)); assay: cross-linking; synaptic vesicles incubated with an excess of soluble ΔN-SNARE complex (about 3 copies per copy of Synaptobrevin-2, 16 h, 4 °C), then BS3 and LC-MS/MS; vesicle proteins and the SNARE complex on the vesicles; settings: remark: other sources report otherwise

Measured: binding

B1: CSP (protein, UniProt P60905 1-198)
chain: MADQRQRSLSTSGESLYHVLGLDKNATSDDIKKSYRKLALKYHPDKNPDNPEAADKFKEINNAHAILTDATKRNIYDKYGSLGLYVAEQFGEENVNTYFVLSSWWAKALFVVCGLLTCCYCCCCLCCCFNCCCGKCKPKAPEGEETEFYVSPEDLEAQLQSDEREATDTPIVIQPASATETTQLTADSHPSYHTDGFN
binds: [1] | cross-linking | [2]

B2: Synaptophysin, P07825 1-307 (natural protein)
chain: MDVVNQLVAGGQFRVVKEPLGFVKVLQWVFAIFAFATCGSYTGELRLSVECANKTESALNIEVEFEYPFRLHQVYFDAPSCVKGGTTKIFLVGDYSSSAEFFVTVAVFAFLYSMGALATYIFLQNKYRENNKGPMMDFLATAVFAFMWLVSSSAWAKGLSDVKMATDPENIIKEMPMCRQTGNTCKELRDPVTSGLNTSVVFGFLNLVLWVGNLWFVFKETGWAAPFMRAPPGAPEKQPAPGDAYGDAGYGQGPGGYGPQDSYGPQGGYQPDYGQPASGGGGYGPQGDYGQQGYGQQGAPTSFSNQM
binds: [3] | [4] | [5] | [6] | [7]

Reference: PMC7870876
